The whole screen tested about 52,000 sequences, of which about 210 (0.4%) were called active.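 The calls were made as follows: active = gene whose silencing raises cell survival under the drug, median off-target-corrected z-score across its silencing RNAs 2 or more; inactive = the rest.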 The list shows a part of the results.
Test: Resistance to Poly (ADP-Ribose) Polymerase inhibitor: Gene Identification via Genome-wide siRNA Screen
Settings: mouse BRCA2 R2336H ES cells, olaparib, CellTiter-Glo viability; hits give high values
How it was run: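 Mouse BRCA2 R2336H ES cells were reverse-transfected with siRNA (20 nM final), treated at 48 h with 500 nM olaparib, and read by CellTiter-Glo after 72 h. Scores: MAD-based z per siRNA, median per gene, seed off-target correction.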

Sequence | z-score
GGGCUAAUGAGAUAGGUUUTT against Slc19a2 | inactive: 0.453
GGUCAGUCAGAACAUGCUATT against Xrcc2 | inactive: 0.0448
CCUUUCUUGUGUUUACAGGTT against P2ry6 | inactive: -0.278
GUAUGCUAGCAUGAUCAACTT against Ndufa3 | inactive: 0.345
GGAGAACAAAACCUCAGGATT against Hoxb7 | inactive: -2.32
GGGACUGAGGACUACAUUCTT against 1500010M16Rik | inactive: -0.588
GCGAUUGAAAACAUACUUCTT against Chst10 | inactive: 0.741
GGAAGAAUGUAUGAACUGUTT against Emid2 | inactive: 0.517
GCUACCACUUCUUUAAUAATT against Hrpt2 | inactive: -3.24
UGGCGAGAUCGGCAUUGGUTT against Ren2 | inactive: -0.43
GGGUAUGGUGGUCAAUAAATT against Gm606 | inactive: -1.21
GGCUGGAUGUAGAAAAUAUTT against Calmbp1 | inactive: -2.61
GGUCAUCAAACACAAUUUATT against Prlr | inactive: -0.323
GGAGAAGAAGGUGAAGAAGTT against Ppp1r3b | inactive: 1.11
CCACCGACUGUGACAUUGUTT against BC016201 | inactive: -1.34
CGACAACCAAAUCAUCACCTT against Gnb2 | inactive: 0.916
GCGGAUGAAUACUUACUUATT against 5730577I03Rik | inactive: -0.788
GGAAGCCAAGUGUACAUUUTT against Clca4 | inactive: -0.289
GCAUAUUGUGCGACUUUUCTT against AW544865 | inactive: -2.39
GGCCGCCCUAAAAAGAAGCTT against Olfr95 | inactive: 0.773
GGCCAGGUUGAGGAUUUUGTT against Nol5 | inactive: -0.336
GGAUUUGUUAACCAGACAUTT against Cab39l | inactive: -0.247
GGGCAAGGAUUCUUUGUAUTT against Rpl36a | inactive: -2.35

Sequence | z-score
GCUCCCACACUUCAUCCCUTT against 1700029G01Rik | inactive: 0.717
GGAGUAUGAGAUGCAGUGUTT against 1110028N05Rik | inactive: -2.5
GGAGAAACUCAACUCUCUCTT against A330102K23Rik | inactive: 0.165
GGAGGAGGAGCUGAAGAAATT against Atp12a | inactive: -1.04
GGCCAAACGGAAAUUCAGCTT against Rax | inactive: 0.903
GGAGACAUGGACCAUGGCUTT against Mapt | inactive: 1.44
CGGCCCUAUAGUUUUCUGGTT against BC022692 | inactive: 1.61
GGGAAAGUCGAGCUUUUUCTT against H28 | inactive: -0.141
GGCUCAAGUAUGAGUCUCATT against 2810048G17Rik | inactive: -1
GGAGAAAGAUGUUUACCGATT against Hyal2 | inactive: 1.49
GCUCAUAUACACCAUUUCUTT against Gm905 | inactive: 0.955
GCCAGAUCUCAAGAGGAUCTT against Chn2 | inactive: 0.734
GCAGCUCCAAAUCCUGUUCTT against Asb16 | active: -1.78
GGAAAUCGUAAAGUUUAGCTT against Temt | inactive: 0.841
GCUCAACAAAGCCUGUUCGTT against Zp3 | inactive: 1.34
CCGUUUACUUCGUCCAAGUTT against Crlf1 | inactive: 1.01
GGGAUGAGAAAGAUGUGCCTT against C530008M17Rik | inactive: 0.626
GCAGUACCGAGCAGCAGAATT against 2410021P16Rik | inactive: -0.712
GCUUUGAGACCUAAUGAUGTT against 1810024B03Rik | inactive: 0.159
GCUUUAGAAUCCAAUACAATT against Zhx1 | inactive: -0.473
GGUCAAGAAGUAUUUUGUCTT against Fbxo6b | inactive: 1.42
CGGAAAGCACAAAAACACUTT against Ocilrp1 | inactive: 0.829
GGCUGUCUGCUGAAAUGAUTT against 9330177P20Rik | inactive: -0.478

Exported with each value named: entries from further up.
CGGCCCUAUAGUUUUCUGGTT against BC022692
  z-score: inactive: 1.61
GGAAAUCGUAAAGUUUAGCTT against Temt
  z-score: inactive: 0.841
CCGUUUACUUCGUCCAAGUTT against Crlf1
  z-score: inactive: 1.01

The listing continues.

Sequence | z-score
GCGAUUAUUUCGCUUUGGATT against Pcdha12 | inactive: -0.675
CCAGAUUUCCUGCAUGGCUTT against 0610006I08Rik | inactive: 1.42
GGGCAACCUUCGUGUCAAGTT against 4933406E20Rik | inactive: -1.32
UCUCUCAUGAACUUCCACATT against Olfr1321 | inactive: -0.582
CCAAUGGGCAAUGGAAUGATT against Sftpd | inactive: -0.692
CCAAGGGUUGCUUCGAGCATT against Upk1a | inactive: 1.18
CCAUGAAUAGCAUCUUUGCTT against Adamtsl2 | inactive: 0.834
GGAGAUUGUGACUGCUUUATT against A830091I15Rik | inactive: -0.485
GGGACAGAUACUAAACUCUTT against Wfdc2 | inactive: -1.29
CCCAUCAUAAGGCAUGUAUTT against Olfr748 | inactive: -0.559
CCAAGAAUCACUGUGUUUATT against Mcf2l | inactive: 0.495
GGCCAGGAAAAAAUCUGCATT against Neu1 | inactive: 0.502
CCCUUUUGGAAACACUUUUTT against Ehd2 | inactive: 0.472
GCAGUUCAAGCAACGACGCTT against Pou3f1 | inactive: 0.405
GGCAUGAACUCAACAGAUUTT against Tnfrsf21 | inactive: -1.56
GGCCAUACUAUCUAUGCAATT against Ablim1 | inactive: 0.156
GGUCGAGUAUGCCUACAGUTT against Tcfl4 | inactive: -1.66
GGAAGAAGCGAAGGGCACUTT against Ndufb7 | inactive: -1.47
GCUUCGACGGUGUAUGGAATT against Cav3 | inactive: -2.17
GGAGUUAAAGUCACUGUUUTT against Mapkap1 | inactive: 0.619
GCGUGCUGGUUUUCUGAUUTT against BC019206 | inactive: -1.24

From PubChem BioAssay AID1347423 (Functional Genomics Laboratory (NCATS/FGL), 2020)
